Among the data in patent US20090005294A1 (CENTRO DE INGENIERIA GENETICA Y BIOTECNOLOGIA, published 2009) are binding values, retold here.

Protein sequences, listed by entry. Tags and fused reporters are not part of them. Lines headed by an entry give the natural chain unless they say otherwise; changes in a name come on top.
UniProt P03129: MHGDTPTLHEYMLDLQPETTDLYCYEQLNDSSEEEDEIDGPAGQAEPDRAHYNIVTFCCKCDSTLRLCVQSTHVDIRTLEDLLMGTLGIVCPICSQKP

Results are given in words; binding and its absence hold for the method and conditions named. Some binding calls cover weakened binding; strength is not graded here.

This experiment has as its target synthetic 28-38 region of HPV-16 E7 oncoprotein (HPV-16) (UniProt P03129). As to the kind of experiment: phage library screening; peptide on P8 of filamentous phage, biotinylated target on a solid surface, immunodetection with anti-P8 antibody.
CAKQRTDPGYC (cyclic; two cysteines engaged in a disulfide (S-S) bridge) [cyclic peptide (d) …]: the binding result was “binds”.

Consider CWMSPRHLGTC (cyclic; two cysteines engaged in a disulfide (S-S) bridge) [cyclic peptide (e) …], for which the binding result was “binds”. Under CRNCTVIQFSC (cyclic; two cysteines engaged in a disulfide (S-S) bridge) [cyclic peptide (f) …] stands “binds”; under CPLVSLRDHSC (cyclic; two cysteines engaged in a disulfide (S-S) bridge) [cyclic peptide (h) …], “binds”.

CHYIAGTVQGC (cyclic; two cysteines engaged in a disulfide (S-S) bridge) [cyclic peptide (g) …]: the binding result was “binds”. Under CQIPQRTATRC (cyclic; two cysteines engaged in a disulfide (S-S) bridge) [cyclic peptide (c) …] stands “binds”; under CKQSYLHHLLC (cyclic; two cysteines engaged in a disulfide (S-S) bridge) [cyclic peptide (i) …], “binds”; under CSVRQGPVQKC (cyclic; two cysteines engaged in a disulfide (S-S) bridge) [cyclic peptide (a) …], “binds”. Under CQSYHELLLQC (cyclic; two cysteines engaged in a disulfide (S-S) bridge) [cyclic peptide (k) …] stands “binds”; under CFQPLTPLCRC (cyclic; two cysteines engaged in a disulfide (S-S) bridge) [cyclic peptide (j) …], “binds”; under CSSCQNSPALC (cyclic; two cysteines engaged in a disulfide (S-S) bridge) [cyclic peptide (b) …], “binds”.
